Values quoted from earlier work, collected in patent US5504116A (Research Foundation of State University of New York, priority 1994, dated 1996).

Legend:
[1] = continuous epidural anesthesia for labor; cited from earlier work
[2] = tested on: sodium channel of rat cardiac ventricular myocyte; details: read-out: ED50 for blocking the sodium channel; cited from earlier work

Q: With `CCN(CC)CC(=O)Nc1c(C)cccc1C` [lidocaine] as the compound, how does the “maternal serum concentration attained” value [1] read?
A: 2.5 µg/mL

Q: And the IC50 [2]?
A: 500 µM
